25 targets from the supplement of paper PMC10849652 can be followed below.

Chains of the proteins cited; added tags and fusions are not shown. Lines headed by an entry give the natural chain unless they say otherwise; changes in a name come on top.
UniProt Q96CS2: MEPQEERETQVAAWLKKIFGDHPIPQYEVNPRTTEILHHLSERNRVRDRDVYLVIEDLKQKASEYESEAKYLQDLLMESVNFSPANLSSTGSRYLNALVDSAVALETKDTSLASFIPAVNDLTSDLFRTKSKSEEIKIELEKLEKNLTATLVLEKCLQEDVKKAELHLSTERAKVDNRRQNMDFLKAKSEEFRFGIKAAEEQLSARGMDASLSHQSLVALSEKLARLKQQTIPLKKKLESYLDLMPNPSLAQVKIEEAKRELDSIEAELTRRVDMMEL
UniProt P36969, whole entry, looked up: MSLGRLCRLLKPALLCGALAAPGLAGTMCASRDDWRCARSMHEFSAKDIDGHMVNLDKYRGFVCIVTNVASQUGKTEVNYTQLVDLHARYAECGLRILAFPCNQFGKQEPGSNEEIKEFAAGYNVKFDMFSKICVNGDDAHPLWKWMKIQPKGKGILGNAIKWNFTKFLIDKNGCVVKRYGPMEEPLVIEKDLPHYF
UniProt P69892: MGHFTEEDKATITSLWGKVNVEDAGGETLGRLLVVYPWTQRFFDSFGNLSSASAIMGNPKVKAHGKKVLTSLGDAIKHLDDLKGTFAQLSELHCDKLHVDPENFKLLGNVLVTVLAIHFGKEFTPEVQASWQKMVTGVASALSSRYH
UniProt P16403, whole entry, looked up: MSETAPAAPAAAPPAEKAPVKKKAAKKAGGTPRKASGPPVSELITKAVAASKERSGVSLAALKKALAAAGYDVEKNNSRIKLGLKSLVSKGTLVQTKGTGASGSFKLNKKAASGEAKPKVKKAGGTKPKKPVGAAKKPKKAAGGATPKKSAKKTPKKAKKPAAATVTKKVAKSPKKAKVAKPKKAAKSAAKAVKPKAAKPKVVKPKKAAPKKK
UniProt Q13547, whole entry, looked up: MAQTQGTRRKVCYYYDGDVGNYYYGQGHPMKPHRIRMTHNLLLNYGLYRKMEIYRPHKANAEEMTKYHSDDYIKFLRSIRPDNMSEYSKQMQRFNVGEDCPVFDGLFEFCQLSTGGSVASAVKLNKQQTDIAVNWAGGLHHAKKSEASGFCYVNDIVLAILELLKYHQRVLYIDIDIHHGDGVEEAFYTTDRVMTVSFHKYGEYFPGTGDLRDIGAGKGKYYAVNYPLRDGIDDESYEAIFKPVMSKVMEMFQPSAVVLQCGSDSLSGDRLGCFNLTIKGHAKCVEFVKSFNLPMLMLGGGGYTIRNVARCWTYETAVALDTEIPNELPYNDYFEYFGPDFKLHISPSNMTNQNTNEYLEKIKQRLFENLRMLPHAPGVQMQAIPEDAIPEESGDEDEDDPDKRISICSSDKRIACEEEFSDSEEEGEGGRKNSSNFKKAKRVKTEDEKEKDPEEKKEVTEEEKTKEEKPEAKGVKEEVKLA
UniProt P49590: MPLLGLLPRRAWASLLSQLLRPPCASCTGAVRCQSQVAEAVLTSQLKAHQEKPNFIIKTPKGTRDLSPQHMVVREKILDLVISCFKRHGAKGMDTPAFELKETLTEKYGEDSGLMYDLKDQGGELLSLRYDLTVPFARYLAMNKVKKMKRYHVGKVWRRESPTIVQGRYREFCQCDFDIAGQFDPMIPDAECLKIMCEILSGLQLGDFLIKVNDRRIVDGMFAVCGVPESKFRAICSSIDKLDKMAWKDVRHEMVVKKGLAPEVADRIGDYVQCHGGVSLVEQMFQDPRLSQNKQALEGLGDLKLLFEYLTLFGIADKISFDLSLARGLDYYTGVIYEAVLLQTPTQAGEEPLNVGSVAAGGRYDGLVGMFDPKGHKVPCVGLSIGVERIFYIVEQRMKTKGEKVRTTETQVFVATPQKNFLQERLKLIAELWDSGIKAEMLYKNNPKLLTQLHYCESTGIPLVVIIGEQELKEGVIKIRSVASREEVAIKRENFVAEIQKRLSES
UniProt Q9BY41: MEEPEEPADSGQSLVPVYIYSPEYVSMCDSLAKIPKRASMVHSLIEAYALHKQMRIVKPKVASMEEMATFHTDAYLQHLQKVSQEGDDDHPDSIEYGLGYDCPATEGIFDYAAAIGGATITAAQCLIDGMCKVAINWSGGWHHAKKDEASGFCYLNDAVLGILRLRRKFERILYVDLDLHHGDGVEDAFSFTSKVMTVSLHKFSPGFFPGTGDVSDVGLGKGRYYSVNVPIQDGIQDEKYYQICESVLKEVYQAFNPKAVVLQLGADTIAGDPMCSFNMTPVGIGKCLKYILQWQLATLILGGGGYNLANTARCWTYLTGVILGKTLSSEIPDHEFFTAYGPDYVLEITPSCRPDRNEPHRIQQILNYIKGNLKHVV
UniProt Q8WUA4: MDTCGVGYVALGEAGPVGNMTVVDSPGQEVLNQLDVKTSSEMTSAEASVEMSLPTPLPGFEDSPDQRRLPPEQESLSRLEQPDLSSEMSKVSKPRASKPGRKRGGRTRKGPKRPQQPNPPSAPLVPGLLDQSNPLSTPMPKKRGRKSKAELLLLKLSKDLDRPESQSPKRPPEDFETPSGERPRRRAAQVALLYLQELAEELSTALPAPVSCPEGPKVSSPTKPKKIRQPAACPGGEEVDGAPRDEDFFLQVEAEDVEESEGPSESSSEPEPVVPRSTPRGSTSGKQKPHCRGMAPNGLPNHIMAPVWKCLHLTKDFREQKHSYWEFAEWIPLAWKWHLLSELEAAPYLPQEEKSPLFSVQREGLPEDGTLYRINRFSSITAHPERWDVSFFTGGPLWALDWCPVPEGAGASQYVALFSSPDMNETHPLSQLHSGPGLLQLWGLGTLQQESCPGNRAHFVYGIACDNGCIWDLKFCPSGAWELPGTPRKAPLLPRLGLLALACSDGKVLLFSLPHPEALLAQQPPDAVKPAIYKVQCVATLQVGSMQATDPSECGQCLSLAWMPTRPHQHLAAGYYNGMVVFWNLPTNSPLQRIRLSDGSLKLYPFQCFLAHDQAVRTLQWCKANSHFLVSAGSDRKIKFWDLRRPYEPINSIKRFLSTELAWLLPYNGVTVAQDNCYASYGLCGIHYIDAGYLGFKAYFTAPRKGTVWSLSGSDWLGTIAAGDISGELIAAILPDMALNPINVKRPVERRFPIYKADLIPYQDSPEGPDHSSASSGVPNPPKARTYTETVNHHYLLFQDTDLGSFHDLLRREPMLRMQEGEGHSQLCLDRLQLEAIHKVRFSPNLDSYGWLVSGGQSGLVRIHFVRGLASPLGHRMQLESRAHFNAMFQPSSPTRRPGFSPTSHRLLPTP
UniProt Q9Y5Q9: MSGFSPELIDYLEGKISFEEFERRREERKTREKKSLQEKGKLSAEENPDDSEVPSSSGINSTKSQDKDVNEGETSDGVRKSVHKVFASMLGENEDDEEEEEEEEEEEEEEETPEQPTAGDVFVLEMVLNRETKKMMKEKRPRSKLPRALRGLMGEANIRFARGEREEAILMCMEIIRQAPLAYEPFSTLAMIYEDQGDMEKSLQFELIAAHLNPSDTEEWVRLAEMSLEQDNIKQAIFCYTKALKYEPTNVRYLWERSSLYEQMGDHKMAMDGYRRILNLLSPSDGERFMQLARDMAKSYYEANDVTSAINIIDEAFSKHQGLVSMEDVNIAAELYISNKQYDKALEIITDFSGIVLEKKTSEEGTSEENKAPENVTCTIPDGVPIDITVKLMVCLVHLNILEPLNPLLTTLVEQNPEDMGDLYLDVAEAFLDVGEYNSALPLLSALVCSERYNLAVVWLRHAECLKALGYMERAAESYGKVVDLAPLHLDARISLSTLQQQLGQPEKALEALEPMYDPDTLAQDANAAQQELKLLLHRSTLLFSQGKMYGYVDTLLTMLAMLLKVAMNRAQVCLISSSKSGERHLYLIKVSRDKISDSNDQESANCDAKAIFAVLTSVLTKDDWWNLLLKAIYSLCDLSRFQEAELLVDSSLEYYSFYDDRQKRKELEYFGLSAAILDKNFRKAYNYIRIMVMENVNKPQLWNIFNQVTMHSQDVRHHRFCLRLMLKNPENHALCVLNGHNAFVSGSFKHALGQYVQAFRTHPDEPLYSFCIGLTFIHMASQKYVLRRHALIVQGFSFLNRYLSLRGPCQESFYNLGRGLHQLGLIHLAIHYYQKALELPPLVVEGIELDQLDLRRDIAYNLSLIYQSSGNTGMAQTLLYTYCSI
UniProt Q92769, whole entry, looked up: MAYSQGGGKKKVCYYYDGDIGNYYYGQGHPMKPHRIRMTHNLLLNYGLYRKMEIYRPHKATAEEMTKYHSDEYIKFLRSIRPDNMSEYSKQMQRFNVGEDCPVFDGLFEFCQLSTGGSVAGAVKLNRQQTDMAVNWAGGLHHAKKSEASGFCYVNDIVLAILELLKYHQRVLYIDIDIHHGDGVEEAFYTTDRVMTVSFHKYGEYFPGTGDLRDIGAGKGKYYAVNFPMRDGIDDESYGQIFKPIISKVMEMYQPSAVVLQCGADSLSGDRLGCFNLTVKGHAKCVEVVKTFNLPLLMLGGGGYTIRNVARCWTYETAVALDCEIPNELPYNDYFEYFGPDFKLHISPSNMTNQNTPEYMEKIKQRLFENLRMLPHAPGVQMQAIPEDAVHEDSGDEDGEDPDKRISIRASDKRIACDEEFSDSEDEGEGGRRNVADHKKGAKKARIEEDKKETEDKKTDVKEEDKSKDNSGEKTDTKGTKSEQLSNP
UniProt Q13888: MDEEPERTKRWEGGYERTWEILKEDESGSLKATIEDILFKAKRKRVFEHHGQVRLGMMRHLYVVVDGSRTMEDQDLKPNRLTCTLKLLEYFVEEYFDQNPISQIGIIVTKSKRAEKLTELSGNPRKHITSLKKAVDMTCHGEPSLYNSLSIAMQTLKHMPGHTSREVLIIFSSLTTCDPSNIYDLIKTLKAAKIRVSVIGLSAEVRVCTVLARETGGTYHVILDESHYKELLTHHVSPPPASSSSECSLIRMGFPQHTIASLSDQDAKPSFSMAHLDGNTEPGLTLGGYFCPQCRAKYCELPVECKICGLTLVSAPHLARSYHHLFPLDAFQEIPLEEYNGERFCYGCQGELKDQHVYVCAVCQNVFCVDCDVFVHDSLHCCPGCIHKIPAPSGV
UniProt P57764: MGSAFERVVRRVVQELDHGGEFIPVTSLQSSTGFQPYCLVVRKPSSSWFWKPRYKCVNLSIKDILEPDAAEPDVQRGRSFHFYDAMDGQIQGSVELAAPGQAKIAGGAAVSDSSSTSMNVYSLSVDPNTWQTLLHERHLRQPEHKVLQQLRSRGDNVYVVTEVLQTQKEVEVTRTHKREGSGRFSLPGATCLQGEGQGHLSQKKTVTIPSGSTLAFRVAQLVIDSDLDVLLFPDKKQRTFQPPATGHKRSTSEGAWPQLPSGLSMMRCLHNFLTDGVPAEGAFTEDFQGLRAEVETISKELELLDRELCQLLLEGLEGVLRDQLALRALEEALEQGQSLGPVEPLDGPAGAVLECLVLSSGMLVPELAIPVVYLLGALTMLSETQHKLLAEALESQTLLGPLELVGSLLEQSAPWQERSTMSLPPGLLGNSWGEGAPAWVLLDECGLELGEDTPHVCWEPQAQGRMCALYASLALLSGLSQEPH
UniProt O15488: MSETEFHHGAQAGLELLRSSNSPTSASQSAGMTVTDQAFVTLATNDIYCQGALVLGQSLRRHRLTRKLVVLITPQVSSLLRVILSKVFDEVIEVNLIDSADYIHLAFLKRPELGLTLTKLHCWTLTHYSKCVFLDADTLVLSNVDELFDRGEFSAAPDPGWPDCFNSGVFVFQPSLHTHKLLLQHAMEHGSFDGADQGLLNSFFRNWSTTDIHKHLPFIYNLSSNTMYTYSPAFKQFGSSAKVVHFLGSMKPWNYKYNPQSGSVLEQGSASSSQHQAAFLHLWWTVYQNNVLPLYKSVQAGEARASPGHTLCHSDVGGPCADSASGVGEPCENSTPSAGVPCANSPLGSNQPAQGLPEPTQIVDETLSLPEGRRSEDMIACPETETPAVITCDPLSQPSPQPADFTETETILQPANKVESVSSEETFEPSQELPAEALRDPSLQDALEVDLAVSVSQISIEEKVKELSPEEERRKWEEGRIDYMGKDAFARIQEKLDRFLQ
UniProt Q16774: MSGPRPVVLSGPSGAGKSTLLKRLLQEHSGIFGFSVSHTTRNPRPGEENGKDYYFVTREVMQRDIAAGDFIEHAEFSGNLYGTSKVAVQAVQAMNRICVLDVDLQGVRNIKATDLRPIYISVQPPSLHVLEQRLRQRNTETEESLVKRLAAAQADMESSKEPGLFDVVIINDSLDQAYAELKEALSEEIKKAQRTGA
UniProt P48637: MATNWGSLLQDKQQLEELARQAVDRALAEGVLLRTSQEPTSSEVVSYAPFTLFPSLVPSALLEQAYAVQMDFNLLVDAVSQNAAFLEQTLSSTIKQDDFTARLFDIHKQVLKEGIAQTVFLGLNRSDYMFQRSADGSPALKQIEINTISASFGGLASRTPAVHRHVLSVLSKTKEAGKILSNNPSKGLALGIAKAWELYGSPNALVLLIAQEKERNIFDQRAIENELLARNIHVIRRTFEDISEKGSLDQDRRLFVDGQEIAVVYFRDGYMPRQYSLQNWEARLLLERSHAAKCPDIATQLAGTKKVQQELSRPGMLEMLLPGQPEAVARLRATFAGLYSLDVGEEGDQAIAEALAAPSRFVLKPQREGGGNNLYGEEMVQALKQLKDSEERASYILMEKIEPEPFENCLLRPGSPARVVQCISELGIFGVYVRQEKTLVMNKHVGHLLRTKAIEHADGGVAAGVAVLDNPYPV

This is one part of the list.

Compound in this test: NCC(=O)Nc1ccc(-n2nc(C(F)(F)F)cc2-c2ccc3c(ccc4ccccc43)c2)cc1
Kind of test: log2 fold change, soluble protein after heating vs DMSO (PISA); higher = thermal stabilisation; K562 lysate, 10 uM; active = over 0.2 and 3.5 SD of the protein, either way, in both replicates (recomputed). An outline of the steps: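 The values are log-two fold changes in thermal stability compared with solvent controls and come from duplicates. They were obtained by TMTpro 16plex LC-MS/MS, with channel sums equalised, on the supernatant after 21,000xg for 90 min. That supernatant came from crude K562 extract at 1 mg/mL protein treated with 10 μM compound for 30 min, heated for 3 min across 48°C-58°C, pooled and brought to 0.5% NP-40 at 4°C.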
As to HAUS1 (UniProt Q96CS2), the log2 fold change was inactive: 0.045.
Then GSTCD (UniProt Q8NEC7), with inactive: -0.025.
As for H4C1 (UniProt P62805), the log2 fold change was inactive: 0.043.
HBD (UniProt E9PEW8): the log2 fold change is inactive: -0.12.
The result for GPX4 (UniProt P36969) reads inactive: -0.007.
Then HBG2 (UniProt P69892), with inactive: -0.123.
Then GTPBP6 (UniProt O43824), with inactive: 0.069; and H1-2 (UniProt P16403), with inactive: 0.039; and HDAC1 (UniProt Q13547), with inactive: 0.018.
Turning to HARS2 (UniProt P49590), the log2 fold change is inactive: 0.05.
With HADHB (UniProt P55084), the log2 fold change was inactive: 0.047.
Then HDAC8 (UniProt Q9BY41), with inactive: 0.057; and H3-3A (UniProt P84243), with inactive: 0.021.
GTF3C2 (UniProt Q8WUA4): the log2 fold change is inactive: 0.043.
The result for GSTM2 (UniProt P28161) reads inactive: 0.017; that for GTF3C3 (UniProt Q9Y5Q9), inactive: -0.007.
With HADHA (UniProt P40939), the log2 fold change is inactive: 0.052.
Then HDAC2 (UniProt Q92769), with inactive: 0.001; and GTF2H2 (UniProt Q13888), with inactive: 0.011.
Then GSDMD (UniProt P57764), with inactive: -0.078; and GYG2 (UniProt O15488), with inactive: -0.041; and GUK1 isoform 2 (UniProt Q16774), with inactive: 0.011.
For GSS (UniProt P48637), the log2 fold change is inactive: -0.02.
Then GUF1 (UniProt Q8N442), with inactive: 0.237.
The result for GRIPAP1 (UniProt Q4V328) reads inactive: -0.01.
